Data on two substances can be found in paper PMC11405525.

By UniProt entry, the sequences of proteins in these tests, tags left out.
UniProt P61289: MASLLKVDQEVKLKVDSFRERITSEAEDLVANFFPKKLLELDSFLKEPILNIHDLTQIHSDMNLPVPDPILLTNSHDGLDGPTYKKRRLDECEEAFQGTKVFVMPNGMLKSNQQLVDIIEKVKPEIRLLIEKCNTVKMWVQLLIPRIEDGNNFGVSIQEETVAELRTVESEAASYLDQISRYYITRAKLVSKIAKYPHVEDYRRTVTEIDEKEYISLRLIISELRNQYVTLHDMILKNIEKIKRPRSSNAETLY
UniProt P20700: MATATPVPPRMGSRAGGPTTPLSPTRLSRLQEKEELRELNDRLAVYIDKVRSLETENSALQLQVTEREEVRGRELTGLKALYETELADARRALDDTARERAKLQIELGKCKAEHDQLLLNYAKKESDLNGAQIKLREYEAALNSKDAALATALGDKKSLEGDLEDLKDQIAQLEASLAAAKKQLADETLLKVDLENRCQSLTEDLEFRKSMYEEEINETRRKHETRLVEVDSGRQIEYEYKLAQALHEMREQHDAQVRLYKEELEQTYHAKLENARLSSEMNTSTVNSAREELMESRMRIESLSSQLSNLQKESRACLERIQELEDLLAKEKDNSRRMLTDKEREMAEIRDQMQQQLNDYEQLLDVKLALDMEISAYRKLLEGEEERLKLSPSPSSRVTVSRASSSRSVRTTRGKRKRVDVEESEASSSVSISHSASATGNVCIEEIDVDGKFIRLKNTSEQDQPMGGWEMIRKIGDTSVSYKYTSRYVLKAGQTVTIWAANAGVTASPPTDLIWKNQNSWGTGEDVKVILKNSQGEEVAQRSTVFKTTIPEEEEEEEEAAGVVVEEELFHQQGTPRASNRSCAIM

In assay [1] the target is PSME3 (proteasome activator complex subunit 3) (human (endogenous in HeLa)) (UniProt P61289). Kind of assay: co-IP; nontransfected HeLa cells, endogenous proteins, with or without 150 uM hydrogen peroxide for 24 h; lysis and washes in RIPA buffer (10 mM Tris-HCl pH 7.5, 150 mM NaCl, 1 mM EDTA, 1% Triton X-100, 0.1% SDS, 0.1% deoxycholate); IP with antibody and protein G sepharose, 4 °C; western blot. (In general: Immunoblotting shows a protein as a band on a membrane.)

For assay [2] the target is unchanged. As to the kind of experiment: co-IP; HeLa cells transfected with pEGFP-C1-PQBP3 or pEGFP-C1, with or without 150 uM hydrogen peroxide (senescence induction); lysis and washes in TNE buffer (10 mM Tris-HCl pH 7.5, 150 mM NaCl, 1 mM EDTA, 1% Nonidet P-40); IP with anti-GFP, anti-PSME3 or anti-Lamin B1 antibody and Protein-G Sepharose, 4 °C; western blot.
Assay [3] deals with T1, PQBP3/NOL7 (polyglutamine binding protein 3; nucleolar protein 7), endogenous (human (endogenous in HeLa)) (UniProt Q9UMY1).
T1 sequence: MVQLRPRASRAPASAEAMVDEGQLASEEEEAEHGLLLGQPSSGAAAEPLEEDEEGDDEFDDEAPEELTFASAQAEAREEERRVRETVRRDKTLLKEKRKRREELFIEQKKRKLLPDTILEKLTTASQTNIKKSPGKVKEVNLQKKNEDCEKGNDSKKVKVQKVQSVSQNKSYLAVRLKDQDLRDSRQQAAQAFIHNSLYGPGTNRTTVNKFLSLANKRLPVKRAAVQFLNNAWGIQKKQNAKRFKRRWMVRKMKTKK
As to the kind of experiment: co-IP; nontransfected HeLa cells, endogenous proteins, with or without 150 uM hydrogen peroxide for 24 h; lysis and washes in RIPA buffer (10 mM Tris-HCl pH 7.5, 150 mM NaCl, 1 mM EDTA, 1% Triton X-100, 0.1% SDS, 0.1% deoxycholate); IP with antibody and protein G sepharose, 4 °C; western blot.

Results are given in words; binding and its absence hold for the method and conditions named. Binding seen in cells or lysates may run through a third protein. Some entries that bind do so weakly or less than the wild type.

Take Lamin B1 (from UniProt P20700 1-586): the binding result in assay [1] and in assay [2] was “binds” each time.

“PSME3 (proteasome activator complex subunit 3) (from UniProt P61289 1-254)”: in assay [3], the binding result is “binds”.
